# Measurements published in PMC10721154.
# Protein sequences, listed by entry. Tags and fused reporters are not part of them. Residues count along the entry.
# UniProt P35869, residues 11-848: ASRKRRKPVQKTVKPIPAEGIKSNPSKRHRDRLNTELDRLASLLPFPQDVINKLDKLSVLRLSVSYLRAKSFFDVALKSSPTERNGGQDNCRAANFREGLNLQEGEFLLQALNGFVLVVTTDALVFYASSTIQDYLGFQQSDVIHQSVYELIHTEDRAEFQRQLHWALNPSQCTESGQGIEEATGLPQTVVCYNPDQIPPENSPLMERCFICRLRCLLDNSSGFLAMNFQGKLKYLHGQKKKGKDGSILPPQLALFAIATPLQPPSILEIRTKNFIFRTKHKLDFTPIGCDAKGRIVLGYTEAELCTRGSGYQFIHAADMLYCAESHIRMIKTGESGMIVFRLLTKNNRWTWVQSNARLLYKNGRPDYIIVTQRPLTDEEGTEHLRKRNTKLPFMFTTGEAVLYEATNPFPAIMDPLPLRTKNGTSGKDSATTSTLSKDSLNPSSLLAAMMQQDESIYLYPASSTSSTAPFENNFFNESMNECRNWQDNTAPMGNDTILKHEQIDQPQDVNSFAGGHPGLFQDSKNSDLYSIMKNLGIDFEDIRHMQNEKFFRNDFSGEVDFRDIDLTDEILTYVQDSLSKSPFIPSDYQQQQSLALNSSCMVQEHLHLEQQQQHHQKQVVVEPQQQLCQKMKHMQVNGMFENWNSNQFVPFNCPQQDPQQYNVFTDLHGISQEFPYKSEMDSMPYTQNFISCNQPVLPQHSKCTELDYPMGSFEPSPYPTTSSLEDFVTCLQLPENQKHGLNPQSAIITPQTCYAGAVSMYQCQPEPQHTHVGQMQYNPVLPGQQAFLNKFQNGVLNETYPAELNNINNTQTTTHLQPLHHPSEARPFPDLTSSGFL
# UniProt P35573: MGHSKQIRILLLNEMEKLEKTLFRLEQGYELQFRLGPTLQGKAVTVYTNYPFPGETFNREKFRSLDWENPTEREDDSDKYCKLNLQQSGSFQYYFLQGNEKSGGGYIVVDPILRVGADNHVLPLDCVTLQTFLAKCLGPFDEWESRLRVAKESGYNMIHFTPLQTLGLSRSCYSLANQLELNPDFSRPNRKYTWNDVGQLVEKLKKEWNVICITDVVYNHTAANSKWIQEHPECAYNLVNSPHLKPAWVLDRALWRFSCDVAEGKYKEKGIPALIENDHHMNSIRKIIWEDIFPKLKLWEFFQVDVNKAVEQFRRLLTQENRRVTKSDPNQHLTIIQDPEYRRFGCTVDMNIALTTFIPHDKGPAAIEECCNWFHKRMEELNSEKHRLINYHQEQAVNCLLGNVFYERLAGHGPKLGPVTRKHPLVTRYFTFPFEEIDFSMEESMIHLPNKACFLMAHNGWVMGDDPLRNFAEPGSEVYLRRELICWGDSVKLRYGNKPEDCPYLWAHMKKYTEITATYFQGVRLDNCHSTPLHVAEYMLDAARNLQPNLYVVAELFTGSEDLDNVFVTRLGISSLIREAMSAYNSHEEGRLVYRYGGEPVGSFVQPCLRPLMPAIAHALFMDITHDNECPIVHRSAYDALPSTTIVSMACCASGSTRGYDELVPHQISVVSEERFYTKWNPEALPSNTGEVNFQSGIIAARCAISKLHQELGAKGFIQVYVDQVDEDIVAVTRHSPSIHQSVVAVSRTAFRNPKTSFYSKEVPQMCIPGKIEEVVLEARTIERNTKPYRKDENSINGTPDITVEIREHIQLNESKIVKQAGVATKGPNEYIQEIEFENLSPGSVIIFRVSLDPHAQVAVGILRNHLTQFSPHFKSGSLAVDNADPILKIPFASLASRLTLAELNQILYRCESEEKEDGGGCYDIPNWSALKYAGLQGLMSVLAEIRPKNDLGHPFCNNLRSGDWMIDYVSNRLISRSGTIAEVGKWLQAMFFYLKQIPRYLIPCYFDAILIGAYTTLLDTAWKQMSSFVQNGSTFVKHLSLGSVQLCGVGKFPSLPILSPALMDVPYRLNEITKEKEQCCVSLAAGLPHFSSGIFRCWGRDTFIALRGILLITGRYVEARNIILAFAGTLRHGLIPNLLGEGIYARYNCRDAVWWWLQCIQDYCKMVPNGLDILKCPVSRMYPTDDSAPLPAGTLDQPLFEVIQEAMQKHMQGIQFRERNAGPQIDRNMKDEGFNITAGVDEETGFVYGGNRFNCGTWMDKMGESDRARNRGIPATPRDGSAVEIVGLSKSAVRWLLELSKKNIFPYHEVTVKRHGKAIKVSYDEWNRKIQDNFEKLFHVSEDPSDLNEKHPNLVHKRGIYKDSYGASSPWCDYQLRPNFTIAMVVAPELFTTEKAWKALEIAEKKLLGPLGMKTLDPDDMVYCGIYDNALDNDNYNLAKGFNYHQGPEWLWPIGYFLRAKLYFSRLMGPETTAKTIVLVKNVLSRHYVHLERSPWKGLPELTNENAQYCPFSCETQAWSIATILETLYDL
# No constants are given. Whether binding was seen depends on the method and setting. In cells and extracts the contact can be indirect. A yes stands for co-enrichment or nearness to the bait. Other partners may have been found.
# T1: starch-binding domain containing protein 1 (STBD1) (human (endogenous in MCF-7, MCF-7/DDP, A549/5-Fu, HEK293T)) (UniProt O95210)
# T1 sequence: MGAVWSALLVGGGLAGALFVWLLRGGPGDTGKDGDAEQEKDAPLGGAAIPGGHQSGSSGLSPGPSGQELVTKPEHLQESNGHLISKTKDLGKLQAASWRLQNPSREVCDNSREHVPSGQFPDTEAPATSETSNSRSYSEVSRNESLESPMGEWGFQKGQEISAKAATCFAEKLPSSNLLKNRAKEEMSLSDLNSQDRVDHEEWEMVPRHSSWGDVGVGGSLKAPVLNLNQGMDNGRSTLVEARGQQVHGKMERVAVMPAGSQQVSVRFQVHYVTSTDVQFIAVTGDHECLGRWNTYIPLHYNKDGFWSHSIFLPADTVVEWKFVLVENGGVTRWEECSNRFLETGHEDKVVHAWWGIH
# T2: starch-binding domain containing protein 1 (STBD1) (human (endogenous in MCF-7, MCF-7/DDP, A549/5-Fu, HEK293T)), O95210
# T2 chain: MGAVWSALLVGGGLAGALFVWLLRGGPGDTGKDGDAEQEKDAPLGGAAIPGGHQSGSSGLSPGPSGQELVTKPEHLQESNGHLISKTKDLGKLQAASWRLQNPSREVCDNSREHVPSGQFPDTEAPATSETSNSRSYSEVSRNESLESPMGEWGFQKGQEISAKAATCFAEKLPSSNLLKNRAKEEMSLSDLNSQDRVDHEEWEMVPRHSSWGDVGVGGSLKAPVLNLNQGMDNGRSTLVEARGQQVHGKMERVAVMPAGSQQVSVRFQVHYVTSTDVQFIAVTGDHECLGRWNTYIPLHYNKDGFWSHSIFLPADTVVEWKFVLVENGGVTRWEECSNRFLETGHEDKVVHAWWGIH
# Biological target: T1, starch-binding domain containing protein 1 (STBD1) (human (endogenous in MCF-7, MCF-7/DDP, A549/5-Fu, HEK293T))
# Experiment: affinity purification with mass spectrometry; anti-STBD1 immunoprecipitate from lysates of MCF-7 or MCF-7/DDP cells treated with DDP for 24 hours; SDS-PAGE, in-gel trypsin digestion, nano-UPLC MS
# Conditions: not given
row,Molecule,binding
1,"glycogen phosphorylase (GP) (human (endogenous in MCF-7, MCF-7/DDP)) (enzyme)",binds
2,"protein phosphatase 1 catalytic subunit (PP1c) (human (endogenous in MCF-7, MCF-7/DDP)) (enzyme)",binds
3,aryl hydrocarbon receptor (AHR) (from UniProt P35869 11-848),binds
4,debranching enzyme (from UniProt P35573 1-1532),binds
5,"glycogen synthase (GYS) (human (endogenous in MCF-7, MCF-7/DDP)) (enzyme)",binds
6,"PP1 regulatory subunit GM (protein, UniProt Q16821 1-1122) MEPSEVPSQISKDNFLEVPNLSDSLCEDEEVTFQPGFSPQPSRRGSDSSEDIYLDTPSSGTRRVSFADSFGFNLVSVKEFDCWELPSASTTFDLGTDIFHTEEYVLAPLFDLPSSKEDLMQQLQIQKAILESTESLLGSTSIKGIIRVLNVSFEKLVYVRMSLDDWQTHYDILAEYVPNSCDGETDQFSFKIVLVPPYQKDGSKVEFCIRYETSVGTFWSNNNGTNYTFICQKKEQEPEPVKPWKEVPNRQIKGCLKVKSSKEESSVTSEENNFENPKNTDTYIPTIICSHEDKEDLEASNRNVKDVNREHDEHNEKELELMINQHLIRTRSTASRDERNTFSTDPVNFPNKAEGLEKKQIHGEICTDLFQRSLSPSSSAESSVKGDFYCNEKYSSGDDCTHQPSEETTSNMGEIKPSLGDTSSDELVQLHTGSKEVLDDNANPAHGNGTVQIPCPSSDQLMAGNLNKKHEGGAKNIEVKDLGCLRRDFHSDTSACLKESTEEGSSKEDYYGNGKDDEEQRIYLGVNEKQRKNFQTILHDQERKMGNPKISVAGIGASNRDLATLLSEHTAIPTRAITADVSHSPRTNLSWEEAVLTPEHHHLTSEGSALGGITGQVCSSRTGNVLRNDYLFQVEEKSGGINSEDQDNSPQHKQSWNVLESQGKSRENKTNITEHIKGQTDCEDVWGKRDNTRSLKATTEELFTCQETVCCELSSLADHGITEKAEAGTAYIIKTTSESTPESMSAREKAIIAKLPQETARSDRPIEVKETAFDPHEGRNDDSHYTLCQRDTVGVIYDNDFEKESRLGICNVRVDEMEKEETMSMYNPRKTHDREKCGTGNITSVEESSWVITEYQKATSKLDLQLGMLPTDKTVFSENRDLRQVQELSKKTDSDAIVHSAFNSDTNRAPQNSSPFSKHHTEISVSTNEQAIAVENAVTTMASQPISTKSENICNSTREIQGIEKHPYPESKPEEVSRSSGIVTSGSRKERCIGQIFQTEEYSVEKSLGPMILINKPLENMEEARHENEGLVSSGQSLYTSGEKESDSSASTSLPVEESQAQGNESLFSKYTNSKIPYFLLFLIFLITVYHYDLMIGLTFYVLSLSWLSWEEGRQKESVKKK",binds
7,"PP1 regulatory subunit GL (protein, UniProt Q86XI6 1-285) MMAVDIEYRYNCMAPSLRQERFAFKISPKPSKPLRPCIQLSSKNEASGMVAPAVQEKKVKKRVSFADNQGLALTMVKVFSEFDDPLDMPFNITELLDNIVSLTTAESESFVLDFSQPSADYLDFRNRLQADHVCLENCVLKDKAIAGTVKVQNLAFEKTVKIRMTFDTWKSYTDFPCQYVKDTYAGSDRDTFSFDISLPEKIQSYERMEFAVYYECNGQTYWDSNRGKNYRIIRAELKSTQGMTKPHSGPDLGISFDQFGSPRCSYGLFPEWPSYLGYEKLGPYY",binds

# Biological target: T2, starch-binding domain containing …
# Experiment: as above
# Conditions: remark: other sources report otherwise
row,Molecule,binding
1,"PPP1R3 family member PPP1R3C (PTG), Q9UQK1 1-317 (protein) MSCTRMIQVLDPRPLTSSVMPVDVAMRLCLAHSPPVKSFLGPYDEFQRRHFVNKLKPLKSCLNIKHKAKSQNDWKCSHNQAKKRVVFADSKGLSLTAIHVFSDLPEEPAWDLQFDLLDLNDISSALKHHEEKNLILDFPQPSTDYLSFRSHFQKNFVCLENCSLQERTVTGTVKVKNVSFEKKVQIRITFDSWKNYTDVDCVYMKNVYGGTDSDTFSFAIDLPPVIPTEQKIEFCISYHANGQVFWDNNDGQNYRIVHVQWKPDGVQTQMAPQDCAFHQTSPKTELESTIFGSPRLASGLFPEWQSWGRMENLASYR",binds
